Patent publication US20120101230A1, “HIGH-DENSITY POLYMER SURFACE COATING TO IMMOBILIZE CHEMICAL OR BIOLOGICAL MOLECULES” (priority 2009, published 2012)
Some of these results come from one statement about several compounds together.

Experiment: Streptavidin/avidin immobilization on high-density polymer (PAA) surfaces, SWS biosensor PWV shift
Format: binding
Conditions: PAA coated under theta condition
Experimental: In order to immobilize protein to the novel surfaces, the high-density polymer surfaces of Examples 2 and 3 were activated by adding 0.34 M EDC/10 mM NHS in water for 10 min, followed by removing the solution. In an initial test of protein immobilization capability and protein activity following immobilization, biotin binding to immobilized streptavidin was used—20 μL of either 200 μg/ml avidin or streptavidin in a non-amine containing buffer (10 mM acetate buffer, pH 5.0) were added to the surface and incubated for 3 hr, followed by a wash first with the non-amine containing buffer, then PBS. Biotin was then added for binding to the immobilized avidin or streptavidin by using a 20 μL of a biotin solution in PBS to result in a final Biotin concentration of approximately 58 μM (N=4).
The initial test was followed up by reacting different concentrations of avidin or streptavidin with the different high-density polymer surfaces.
20 μL of either 0, 50, or 200 μg/ml avidin or streptavidin in a non-amine containing buffer were added to the wells after they were pre-activated for 10 min with EDC/NHS, and incubated for 3 hr. This was then followed by a wash first with the non-amine containing buffer. Biotin was then added for binding to the immobilized avidin or streptavidin by adding 20 μL of a biotin solution in PBS to result in a final Biotin concentration of approximately 58 μM (N=4).

avidin
delta PWV of protein immobilization (50 μg/ml protein): above 8 m
delta PWV of protein immobilization (200 μg/ml protein): > 9 nm
